# Laboratory results reported in US9486457B2, “Use of cinnabarinic acid as a modulator of immune responses in autoimmune disorders” (The Regents of the University of California, priority 2010, dated 2016).
# Entries after “also recorded” stand apart in the source; their conditions may differ. At least one structure is not confirmed: it was looked up by name or label, or the drawing left a doubt.
# Key:
# human AHR protein = molecular target: T1, human AHR protein (Homo sapiens, UniProt P35869); assay: Displacement of TCDD binding to in vitro translated human AHR protein; details: cell-free
# T1 sequence (P35869 11-848): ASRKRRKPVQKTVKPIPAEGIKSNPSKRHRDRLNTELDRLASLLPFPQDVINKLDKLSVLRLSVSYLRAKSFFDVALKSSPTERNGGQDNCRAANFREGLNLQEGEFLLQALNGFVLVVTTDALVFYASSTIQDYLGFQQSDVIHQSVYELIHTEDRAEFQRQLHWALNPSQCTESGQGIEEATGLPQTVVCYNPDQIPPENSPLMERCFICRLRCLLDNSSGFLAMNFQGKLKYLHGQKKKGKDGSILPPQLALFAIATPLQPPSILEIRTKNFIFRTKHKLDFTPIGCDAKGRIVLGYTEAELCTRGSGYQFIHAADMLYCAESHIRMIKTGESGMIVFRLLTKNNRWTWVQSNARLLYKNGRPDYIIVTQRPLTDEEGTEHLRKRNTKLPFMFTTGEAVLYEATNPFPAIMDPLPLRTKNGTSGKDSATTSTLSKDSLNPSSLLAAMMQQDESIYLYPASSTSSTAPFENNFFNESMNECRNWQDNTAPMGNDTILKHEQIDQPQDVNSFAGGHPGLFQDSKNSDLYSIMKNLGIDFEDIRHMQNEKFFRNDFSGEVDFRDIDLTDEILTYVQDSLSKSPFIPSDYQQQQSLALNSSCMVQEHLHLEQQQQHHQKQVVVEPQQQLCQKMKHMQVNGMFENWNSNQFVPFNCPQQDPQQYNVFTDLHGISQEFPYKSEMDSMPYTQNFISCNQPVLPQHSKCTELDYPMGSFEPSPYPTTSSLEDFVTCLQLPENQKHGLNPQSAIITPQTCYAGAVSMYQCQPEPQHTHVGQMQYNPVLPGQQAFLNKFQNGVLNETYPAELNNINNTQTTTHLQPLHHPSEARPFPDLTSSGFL
# Source text: (§1) We performed a precursory screen of all tryptophan metabolites including both 3-HKA and 3-HAA to bind to and act as agonists or antagonists of the AHR using two separate assays. First we examined the ability of 3-HKyn, 3-HAA, and PA to displace TCDD binding to the human AHR protein in vitro (20). […] We also measured AHR activation using a mouse hepatoma cell line (H1G1) that stably expresses a green fluorescent protein (GFP) reporter construct downstream of a series of dioxin responsive elements (FIG. 7A) (21).
# [1] = test system: experimental allergic encephalomyelitis (EAE); details: literature reports (refs 15, 25 as cited in text); cited from earlier work
# [2] = test system: stimulated human CD4+ T cells; assay: IL-22 expression by CD4+ T cells in stimulated human PBMCs / T cells; type: cell-based; details: 100 μM for 3-HKyn and 3-HAA in FIG. 6A
# Source text: FIG. 6: 3-HKyn and 3-HAA promote IL-22 expression by stimulated human CD4+ T cells. […] (C) IL-22 induction by 3-HAA is blocked by inhibition of the AhR pathway.
# This is highlighted by the observation that AHR−/− mice retain the ability to generate some Th17 cells, but are incapable of generating cells that express IL-22 (16-18). […] To screen for the ability of tryptophan metabolites generated downstream of IDO to activate the AHR, we stimulated human T cells in vitro in the presence of different tryptophan metabolites (3-Hydroxykynurenine (3-HKA), 3-Hydroxyanthranilic Acid (3-HAA), Picolinic Acid (PA), and Quinolinic Acid (QA)) to assess whether any promoted the expansion of CD4+ T cells secreting IL-22. […] To determine whether the induction of IL-22 within this population was dependent upon AHR activation, we next stimulated human T cells in the presence or absence of a potent AHR antagonist (CH-223191) and monitored the induction of IL-22.
# [3] = test system: naïve (CD45RA+CCR7+CD95−CD25−) CD4+ T cells; assay: Foxp3 induction in stimulated naïve CD4+ T cells; type: cell-based, human; details: stimulated naïve CD4+ T cells in vitro
# Source text: FIG. 9: The synthetic 3-HAA analogue 3,4 DAA (Tranilast) is an AhR antagonist and promotes the induction of Foxp3 by stimulated CD4+ T cells. (A) 3,4 DAA shares some structural similarities to 3-HAA (highlighted region).
# Therefore we asked whether T cells treated with 3,4 DAA might be prompted to differentiate into Treg cells through upregulation of the transcription factor Foxp3 (26).
# human T cells = assay: T cell proliferation in in vitro stimulations; type: cell-based; details: range of concentrations tested
# AHR = molecular target: T2, AHR (Mus musculus, UniProt P30561); assay: AHR-responsive (dioxin responsive element) GFP reporter assay in H1G1 mouse hepatoma cells; type: cell-based
# T2 construct: murine hepatoma cell line stably transfected with an AhR-responsive (AhR-eGFP) reporter construct; endogenous in cells
# T2 sequence (P30561 10-848): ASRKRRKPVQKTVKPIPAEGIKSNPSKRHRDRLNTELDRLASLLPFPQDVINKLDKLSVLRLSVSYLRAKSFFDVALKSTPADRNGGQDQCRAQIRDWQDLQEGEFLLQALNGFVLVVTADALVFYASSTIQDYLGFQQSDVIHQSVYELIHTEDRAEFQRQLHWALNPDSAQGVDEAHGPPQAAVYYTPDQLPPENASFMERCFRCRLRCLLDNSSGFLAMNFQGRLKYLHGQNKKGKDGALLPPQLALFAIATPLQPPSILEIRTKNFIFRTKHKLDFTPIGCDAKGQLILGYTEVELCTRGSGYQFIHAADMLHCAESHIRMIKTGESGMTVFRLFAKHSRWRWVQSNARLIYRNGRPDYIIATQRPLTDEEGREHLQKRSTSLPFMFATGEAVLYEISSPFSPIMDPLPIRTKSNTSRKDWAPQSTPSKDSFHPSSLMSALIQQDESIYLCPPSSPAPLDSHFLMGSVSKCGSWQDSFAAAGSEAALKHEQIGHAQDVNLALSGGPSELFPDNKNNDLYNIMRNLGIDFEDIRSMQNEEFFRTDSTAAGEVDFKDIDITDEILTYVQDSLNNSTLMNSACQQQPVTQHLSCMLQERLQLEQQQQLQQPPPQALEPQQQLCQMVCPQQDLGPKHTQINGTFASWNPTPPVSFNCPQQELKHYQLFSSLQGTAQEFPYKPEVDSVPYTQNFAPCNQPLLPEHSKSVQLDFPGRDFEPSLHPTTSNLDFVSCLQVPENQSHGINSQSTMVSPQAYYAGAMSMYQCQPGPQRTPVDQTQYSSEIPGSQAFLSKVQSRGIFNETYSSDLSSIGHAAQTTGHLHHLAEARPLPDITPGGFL
# Source text: as §1
structure (smiles),measurement,setting,value
"COc1ccc(/C=C/C(=O)Nc2ccccc2C(=O)O)cc1OC [3,4 DAA, N-(3,4-dimethoxycinnamonyl) anthranilic acid]",displacement / inhibition of TCDD binding to human AHR,human AHR protein,displace TCDD at relatively high concentrations; also recorded: inhibits TCDD binding to human AhR in vitro but only at high concentrations (1000 μM)
same,effect on EAE as previously reported,[1],abrogate the development of experimental autoimmune encephalomyelitis (EAE)
same,IL-22 expression by CD4+ T cells (Th22 differentiation),[2],slight increase in the frequency of CD4+ T cells secreting IL-22; also recorded: induces IL-22 expression by CD4+ T cells but to a lesser extent than 3-HAA
same,Foxp3 expression (frequency of CD4+Foxp3+ T cells),[3],dose-dependent increase in the frequency of CD4+Foxp3+ T cells; also recorded: induces Foxp3 expression
same,T cell proliferation,human T cells,dramatically suppressed T cell proliferation; also recorded: proliferation of the T cells was significantly inhibited
same,AHR agonist activity (activation of AHR-responsive reporter),AHR; agonist mode,no activity as an AHR agonist
same,AHR antagonist activity (block of AHR activation by TCDD),"AHR; antagonist mode, co-treatment with TCDD, H1G1 cells",prevented AHR activation by TCDD; also recorded: blocks activation of the AhR by TCDD
